Record: PubChem BioAssay AID743121 (NCATS, 2013)

Test: 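Partners whose loss is lethal together with topoisomerase I blockade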 (primary screen)
System: MDA-MB-231 cells, a human breast cancer line
Reagent: single siRNA against human genes, 20 nM siRNA (0.8 pmol per well)
Duration: 120 h (drug added 48 h after transfection, read 72 h later)
Challenge: camptothecin 20 nM (about EC30) for 72 h; vehicle 0.1% DMSO in parallel plates
Measured: 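CellTiter-Glo ATP signal, scaled to control siRNA as percent viability; sensitisation given as log2 of untreated divided by camptothecin-treated viability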
Scale: log2 vehicle/camptothecin viability: higher = stronger sensitisation to camptothecin; viability with camptothecin and viability without drug: higher = more viable cells
Call rule: 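Each gene scored by redundant siRNA activity (RSA) over its individual siRNA ratios; a gene is called active at p < 0.001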
In all, the deposit lists about 26,000 reagents; below is an unselected part. 167 of all reagents (0.63%) were called active. 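Calls are per gene from RSA p-values that are not deposited; an individual active-marked siRNA can sensitise only weakly.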 A number with no mark means an inactive call. The numbers tell different reagents against one gene apart.

gene,reagent no.,log2 vehicle/camptothecin viability,viability with camptothecin (% of control),viability without drug (% of control)
KCNE2,1,-0.275,80.4,66.4
KCNE2,2,-0.263,98,81.6
KCNE2,3,-0.112,62.5,57.8
KCNE2,4,-0.0315,84.9,83
OR1J4,1,0.321,14.6,18.3
OR1J4,2,0.532,35.9,52
OR1J4,3,0.261,86.3,103
OR1J4,4,-0.285,107,87.6
CSE1L,1,0.692,40.3,65.2
CSE1L,2,0.0406,109,112
CSE1L,3,-0.176,73.3,64.9
CSE1L,4,0.672,32.9,52.4
PPP1R3F,1,-0.105,96.5,89.7
PPP1R3F,2,-0.324,121,96.6
PPP1R3F,3,-0.194,39.1,34.2
PPP1R3F,4,-0.316,92.9,74.6
TSSK1B,1,-0.239,77.7,65.8
TSSK1B,2,-0.335,134,106
TSSK1B,3,-0.426,114,85.1
TSSK1B,4,-0.0148,94,93
OLR1,1,-0.356,86.8,67.8
OLR1,2,0.0356,97.3,99.7
OLR1,3,-0.179,29,25.6
OLR1,4,-0.377,65.9,50.8
GRM4,1,-0.0894,106,99.9
GRM4,2,0.167,35,39.4
GRM4,3,-0.0679,70.1,66.9
GRM4,4,-0.151,78.2,70.5
RAP2A,1,-0.246,128,108
RAP2A,2,-0.428,47.7,35.4
RAP2A,3,-0.118,42.8,39.4
DERL1,1,-0.26,79.6,66.4

7 entries from above, reformatted.
{"gene": "GRM4", "reagent no.": 1, "log2 vehicle/camptothecin viability": -0.0894, "viability with camptothecin (% of control)": 106, "viability without drug (% of control)": 99.9}
{"gene": "GRM4", "reagent no.": 2, "log2 vehicle/camptothecin viability": 0.167, "viability with camptothecin (% of control)": 35, "viability without drug (% of control)": 39.4}
{"gene": "GRM4", "reagent no.": 3, "log2 vehicle/camptothecin viability": -0.0679, "viability with camptothecin (% of control)": 70.1, "viability without drug (% of control)": 66.9}
{"gene": "GRM4", "reagent no.": 4, "log2 vehicle/camptothecin viability": -0.151, "viability with camptothecin (% of control)": 78.2, "viability without drug (% of control)": 70.5}
{"gene": "RAP2A", "reagent no.": 1, "log2 vehicle/camptothecin viability": -0.246, "viability with camptothecin (% of control)": 128, "viability without drug (% of control)": 108}
{"gene": "RAP2A", "reagent no.": 2, "log2 vehicle/camptothecin viability": -0.428, "viability with camptothecin (% of control)": 47.7, "viability without drug (% of control)": 35.4}
{"gene": "RAP2A", "reagent no.": 3, "log2 vehicle/camptothecin viability": -0.118, "viability with camptothecin (% of control)": 42.8, "viability without drug (% of control)": 39.4}

Next results follow:
gene,reagent no.,log2 vehicle/camptothecin viability,viability with camptothecin (% of control),viability without drug (% of control)
SLAMF1,1,0.237,38,44.8
SLAMF1,2,-0.692,44.3,27.4
SLAMF1,3,-0.601,54.4,35.8
SLAMF1,4,0.458,38,52.2
SUV39H2,1,-0.034,81.7,79.8
SUV39H2,2,-0.369,111,86.3
SUV39H2,3,0.0155,101,102
SUV39H2,4,-0.201,94.5,82.2
BAG3,1,-0.216,74.5,64.2
BAG3,2,0.0737,85.8,90.3
BAG3,3,-0.145,96.5,87.3
BAG3,4,0.0444,73.9,76.2
STEAP4,1,-0.163,82.8,73.9
STEAP4,2,-0.197,58.7,51.2
STEAP4,3,-0.104,80.4,74.8
ABCC10,1,-0.131,91.7,83.7
ABCC10,2,-0.544,46.1,31.6
ABCC10,3,0.0108,92.5,93.2
ABCC10,4,-0.374,75.4,58.2
IQGAP3,1,-0.233,50.4,42.8
IQGAP3,2,-0.098,79.8,74.6
IQGAP3,3,-0.258,53.4,44.6
IQGAP3,4,-0.205,43.2,37.5
CELA3A,1,-0.632,110,71.1
CELA3A,2,0.499,52.1,73.6
CELA3A,3,-0.352,99.6,78
CELA3A,4,-0.0757,62.8,59.5
CELA3A,5,-0.226,49.2,42.1
TAS2R16,1,0.217,70.7,82.2
TAS2R16,2,0.0276,92.5,94.3
TAS2R16,3,-0.394,83,63.2
TAS2R16,4,-0.413,46.8,35.2
DUSP2,1,-0.112,101,93.4
DUSP2,2,-0.0839,104,98
DUSP2,3,-0.0548,76.2,73.3
DUSP2,4,-0.531,74.1,51.2
